# Laboratory results from PubChem BioAssay AID2685 (National Center for Advancing Translational Sciences (NCATS), 2010).
# Out of some 320,000 compounds screened, about 2,100 (0.66%) were called active. The inconclusive results got no clear call from the source; some entries with a clear call stand among them for comparison. Calls come from the whole dose curve; as a rule, active = well fitted inhibition curve with a large enough effect in the signal ratio, with a control signal flat (not every such curve was filed as active); inconclusive = small, poorly fitted or top-dose-only effect, or effect the other way, or a change in a side signal; inactive = flat fitted curve, though single readings scatter; the % refers to the signal ratio. Potencies of inconclusive entries are doubtful fits and often do not repeat.
# Assay: qHTS Assay for Lipid Storage Modulators in Drosophila S3 Cells
# Conditions: BODIPY lipid droplet fluorescence, 18-24 h, cells fed with added oleic acid; lipid storage change, negative = inhibition: at 46.1 µM (top of the series) unless noted
# Method in brief: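 Laser-scanning cytometry quantifies lipid droplet accumulation (500–530 nm total intensity; droplet/cell object ratio) in oleic acid-fed (400 uM added) Drosophila S3 cells treated with a concentration series. 20 uM Triacsin C defined 100% inhibition.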
# % is set by controls: 0 for no effect and ±100 for the full control effect; potency is the fitted concentration of half-maximal effect.
Compound,Potency,"lipid storage change, negative = inhibition"
CCOc1ccccc1NC(=O)CN1CCCCCC1,"inconclusive: 3.66 µM [falling, full curve, poor fit]",–
CC(=O)Oc1ccc(C(=O)Nc2cccc(C(=O)NC(C)(C)C)c2)cc1,–,inconclusive: 2.47%
CCC(C)n1c(SCc2ccccc2)nc2ccsc2c1=O (stereo not drawn),"inconclusive: 14.6 µM [activator, partial curve]",–
O=C(O)c1ccc(N/N=C/c2cccc(F)c2)cc1,"inconclusive: 3.66 µM [activator, partial curve]",–
Cc1cc(NC(=O)c2cc(C(C)C)on2)nn1Cc1ccc(Cl)cc1,"inconclusive: 0.0184 µM [falling, full curve, poor fit]",–
Cc1nnc(SCc2nnc(-c3cccs3)o2)s1,"inconclusive: 0.0046 µM [falling, full curve, poor fit]",–
COC(=O)CN1C(c2ccccc2)=Nc2ccc(Cl)cc2C1c1ccccc1 (stereo not drawn),–,inconclusive: 70.1%
CN(CCc1ccccn1)C(=O)c1cccnc1Oc1ccc(Cl)cc1,–,inconclusive: 9.59%
COc1ccc2cc3cc(C(=O)NCC4CCCO4)oc3nc2c1 (stereo not drawn),"inconclusive: 0.58 µM [activator, single point]",–
COCCn1c(C)cc(C(=O)CSc2nnc(C3CC3)n2C2CC2)c1C,–,inconclusive: -53.3%
CSc1nc(-c2ccc(C)cc2)[nH]c1S(=O)(=O)c1ccccc1,–,inconclusive: 35.8%
N=C1C(c2ccccc2)=C(O)CN1c1cccc(S(N)(=O)=O)c1,"inconclusive: 0.0065 µM [falling, full curve, poor fit]",–
CN(c1cccc(NC(=O)c2ccccc2N(Cc2ccccc2)S(C)(=O)=O)c1)S(C)(=O)=O,–,inconclusive: -28.6%
COc1ccc(-c2[nH]ncc2-c2ccc3c(c2)OCCO3)c(O)c1,–,inconclusive: 0.232%
CCn1ncc(Br)c1C(=O)Nc1ccc(C(=O)OC(C)C)cc1,–,inconclusive: 81.8%
CCN(CC(=O)NC1CCS(=O)(=O)C1)c1nc(-c2cccnc2)nc2ccccc12 (stereo not drawn),–,inconclusive: -9.58%
COCCn1c(=O)[nH]c2cc(C(=O)Nc3nnc(C)s3)ccc21,"inconclusive: 2.59 µM [activator, partial curve]",–
COc1ccc(-c2cnc(SCC(=O)Nc3cc(C)on3)n2Cc2ccco2)cc1,"inconclusive: 2.31 µM [activator, partial curve]",–
COc1ccc(NC(=O)CSc2nnc(Cc3cccn3C)n2-c2ccc(F)cc2)cc1,–,inconclusive: 49%
Cc1cnc(C(=O)Nc2ccc(S(=O)(=O)N(C(C)C)C(C)C)cc2)cn1,"inconclusive: 20.6 µM [falling, partial curve, poor fit]",–
CN1CC(=O)N(CC(=O)Nc2ccc(N3CCOCC3)cc2)C1=O,–,inconclusive: 0.535%
Cc1[nH]c2ccccc2c1N=Nc1c(C)n(C)n(-c2ccccc2)c1=O,–,inconclusive: -75.6%
CC(NC(=O)c1cc(-c2ccncc2)nc2ccc(Cl)cc12)C1CCCO1 (stereo not drawn),"inconclusive: 18.4 µM [falling, single point]",–
O=c1[nH]c(/C=C/c2ccccc2F)nc2ccccc12,–,inactive
COc1ccc(-c2[nH]ncc2CN(Cc2nccn2C)C(C)C)c(F)c1,–,inconclusive: -0.997%

Compound,Potency,"lipid storage change, negative = inhibition"
COC(=O)CSc1nnc(-c2ccccc2O)n1-c1ccc(C)cc1,–,inconclusive: 32.4%
CS(=O)(=O)N(CC(=O)N1CCCCC1)c1ccc(Cl)c(C(F)(F)F)c1,–,inactive
Cc1cc(C)cc(C(=O)NCC(=O)NNC(=O)CSc2ccccc2F)c1,–,inconclusive: 42.2%
Cc1sc2ncnc(NCc3cccs3)c2c1C,–,inconclusive: -30.1%
Cc1cccc(NC(=O)CN2CCCN(S(=O)(=O)c3ccc(Br)s3)CC2)c1,–,inconclusive: -137%
CCOc1ccccc1CNS(=O)(=O)c1ccc2[nH]c(=O)sc2c1,"inconclusive: 32.6 µM [falling, single point]",–
Cc1ccccc1NC(=O)COC(=O)COc1ccc2c(c1)CCC2,–,inconclusive
COc1ccccc1NC(=O)CSc1ncnc2c1oc1ccccc12,"inconclusive: 0.517 µM [activator, full curve]",–
CCCn1c2c(c(O)c(C(=O)Nc3ccccc3)c1=O)CCCC2,–,inconclusive: 10.5%
CN1C(=O)[C@H]2[C@@H](C3CC3)N3C(=O)CN(CCO)C(=O)[C@@]3(Cc3ccccc3)[C@H]2C1=O,"inconclusive: 1.64 µM [activator, single point]",–
Cc1ccc(C(=O)Nc2cccc(-c3ccc(N4CCOCC4)nn3)c2)cc1[N+](=O)[O-],"inconclusive: 4.11 µM [activator, partial curve]",–
CC(C)C(=O)Nc1ccc(-c2nnc(-c3ccccc3)o2)cc1,–,inconclusive: 16.7%
COc1ccc(S(=O)(=O)N2CCC(C(=O)N3CCc4ccccc4C3)CC2)cc1,–,inconclusive: 3.13%
COc1ccc(NC(=O)/C(C#N)=C/c2c(C)nn(-c3ccc(F)cc3)c2Cl)cc1Cl,–,inconclusive: 21.6%
CC(=O)c1cccc(NC(=S)NNC(=O)c2ccco2)c1,–,inconclusive: 19.6%
CCOc1ccc(NC(=NCc2ccc3c(c2)OCO3)SC2CC(=O)N(c3ccc(OCC)cc3)C2=O)cc1 (stereo not drawn),–,inactive
CC(C)C[C@H]1CN=C(Nc2ccccc2)N1CCC(C)c1ccccc1 (stereo partly drawn),"inconclusive: 2.06 µM [falling, partial curve, poor fit]",–
O=C(COC(=O)CCNS(=O)(=O)c1ccc(Cl)cc1)Nc1ccccc1OC(F)F,–,inconclusive: -11.4%
CCCCCn1nc(C)c(/C=N/NC(=O)c2ccoc2C)c1C,–,inconclusive: -22.5%
CC(C)NC(=O)CN1CCC(c2nc3ccccc3[nH]2)CC1,–,inconclusive: 120%
Cc1c(NC(=O)C(C)Sc2nnc(-c3ccccc3)o2)c(=O)n(-c2ccccc2)n1C (stereo not drawn),–,inconclusive: -44.3%
CC(CCc1ccccc1)NC(=O)c1ccc2nc(N3CCOCC3)sc2c1 (stereo not drawn),–,inconclusive: 10.5%
CCOC(=O)CC1C(=O)NCCN1c1nc2ccc(C)cn2c(=O)c1/C=C1\SC(=S)N(C(C)CC)C1=O (stereo not drawn),"inconclusive: 2.59 µM [falling, full curve]",–
CCc1ccc(-c2nc(CS(=O)CC(=O)NCCc3ccccc3)c(C)o2)cc1 (stereo not drawn),"inconclusive: 0.651 µM [falling, full curve]",–
CCN1CCN(c2cc(C)c3cc(NC(=S)NCCCOC)ccc3n2)CC1,"inconclusive: 6.51 µM [activator, single point]",–

Compound,Potency,"lipid storage change, negative = inhibition"
CN(C(=O)C1CCOC1)c1nnc(C2CCOC2)s1 (stereo not drawn),–,inconclusive: -10.1%
Cc1ccccc1C(=O)NCCn1cc(SCC(=O)NCC2CCCO2)c2ccccc21 (stereo not drawn),–,inactive
O=C(NCC(c1cccs1)N1CCOCC1)c1cccnc1 (stereo not drawn),–,inconclusive: 40.8%
CCCCOc1ccc(C(=O)N(Cc2ccco2)C2CCS(=O)(=O)C2)cc1 (stereo not drawn),–,inconclusive: -42.2%
NS(=O)(=O)c1ccc(CCNC(=O)c2cc(-c3cc(Cl)ccc3O)n[nH]2)cc1,–,inconclusive: 4.8%
Cc1ccccc1N1C(=O)C2C3CCC(O3)C2C1=O (stereo not drawn),"inconclusive: 6.51 µM [activator, full curve]",–
O=S(=O)(c1ccccc1)c1nc(-c2ccc(F)cc2)oc1NCC1CCCO1 (stereo not drawn),"inconclusive: 29.1 µM [falling, single point]",–
CCOc1c2ccccc2nn1CCOC,–,inconclusive: 10.6%
Cn1ccnc1SCC(=O)Nc1nc2c(F)c(F)c(F)cc2s1,–,inconclusive: 12%
CCCCN(CCCC)c1nc2ccccc2nc1C(C#N)C(=O)NCCCOC (stereo not drawn),–,inconclusive: 44.7%
CSCc1cccc(C(=O)OC(C)C(=O)Nc2c(C)n(C)n(-c3ccccc3)c2=O)c1 (stereo not drawn),"inconclusive: 0.58 µM [activator, single point]",–
COc1cc(C(=O)N2CCN(c3ncnc4sc(C)c(C)c34)CC2)cc(OC)c1OC,"inconclusive: 10.3 µM [cytotoxic, partial curve]",–
CCN(CC)c1nc(C)c(C(=S)Nc2cc([N+](=O)[O-])ccc2Cl)s1,–,inconclusive: -21.4%
CCOc1ccccc1CNC(=O)c1ccccc1NC(=O)C1=CSCCO1,"inconclusive: 29.1 µM [falling, single point]",–
O=C(CCn1ccc2cc(S(=O)(=O)N3CCCC3)ccc21)NCc1ccccc1F,"inconclusive: 14.6 µM [activator, partial curve]",–
CCc1ccc(C(=O)C(C)OC(=O)Cc2n[nH]c(=O)c3ccccc23)cc1 (stereo not drawn),active: 13 µM,–
C=CCn1cc(-c2ccc(Cl)cc2)cc(C#N)c1=O,"inconclusive: 7.31 µM [rising, partial curve]",–
Cc1cc(C)c2c(N)c(C(=O)Nc3ccc(C)c(C)c3)sc2n1,–,inactive
COC(=O)CN1C(=S)N(c2ccc(F)cc2)C(=O)C1CC(=O)Nc1ccc(F)cc1 (stereo not drawn),"inconclusive: 0.164 µM [falling, full curve, poor fit]",–
Cc1ccc(C)c(NC(=S)N2CCN(S(=O)(=O)c3ccccc3)CC2)c1,"inconclusive: 6.51 µM [falling, partial curve, poor fit]",–
Cc1cccc2cc(CN(CC3CCCO3)C(=O)NC3CCCCC3)c(=O)[nH]c12 (stereo not drawn),"inconclusive: 25.9 µM [activator, single point]",–
Cc1ccc(-n2nnnc2SCC(=O)N2CCNC2=O)cc1C,"inconclusive: 0.731 µM [activator, single point]",–
CCOc1ccc(-c2cccc(NS(=O)(=O)c3cc([N+](=O)[O-])ccc3C)c2)nn1,–,inconclusive: 18.3%

# In the list so far, three contain a nitro group on carbon:
Compound,Potency,"lipid storage change, negative = inhibition"
Cc1ccc(C(=O)Nc2cccc(-c3ccc(N4CCOCC4)nn3)c2)cc1[N+](=O)[O-],"inconclusive: 4.11 µM [activator, partial curve]",–
CCN(CC)c1nc(C)c(C(=S)Nc2cc([N+](=O)[O-])ccc2Cl)s1,–,inconclusive: -21.4%
CCOc1ccc(-c2cccc(NS(=O)(=O)c3cc([N+](=O)[O-])ccc3C)c2)nn1,–,inconclusive: 18.3%
